We go through 80 substances from patent US10450346B2, “Immunotherapy against several tumors of the blood, in particular chronic lymphoid leukemia (CLL)” (Immatics biotechnologies GmbH, priority 2014, dated 2019).

For the series, the system named is primary CLL samples (PBMC from CLL patients), HLA class I ligands. Description: HLA class I ligandome analysis by LC-MS/MS (frequency of HLA restricted presentation). More on the design: species or system human. The note with it: CLL patient HLA class I ligandomes (n = 30).
Take “87 (DVAEPYKVY; listed as Homo sapiens) [compound 87]”: the “Number of positive CLLs” value worked out at 1. For “88 (IVSGQPGTQK; listed as Homo sapiens) [compound 88]”, the “Number of positive CLLs” value is given as 3. Regarding “89 (TPEQQAAIL; listed as Homo sapiens) [compound 89]”, the “Number of positive CLLs” value is given as 1.

As for “90 (VELFRTAYF; listed as Homo sapiens) [compound 90]”, the “Number of positive CLLs” value is on record as 1. Turning to “91 (EHADDDPSL; listed as Homo sapiens) [compound 91]”, the “Number of positive CLLs” value was determined as 1. Take “92 (SEESVKSTTL; listed as Homo sapiens) [compound 92]”: the “Number of positive CLLs” value amounted to 2.

Consider “93 (SPRPPLGSSL; listed as Homo sapiens) [compound 93]”, for which the “Number of positive CLLs” value is 4. With “94 (SPWWRSSL; listed as Homo sapiens) [compound 94]”, the “Number of positive CLLs” value was determined as 1. For the substance “95 (VYTPVDSLVF; listed as Homo sapiens) [compound 95]”, the “Number of positive CLLs” value is reported as 1. As to “96 (APLQRSQSL; listed as Homo sapiens) [compound 96]”, the “Number of positive CLLs” value was 6. Turning to “97 (DEVHQDTY; listed as Homo sapiens) [compound 97]”, the “Number of positive CLLs” value amounted to 1.

“98 (LPHSATVTL; listed as Homo sapiens) [compound 98]”: the “Number of positive CLLs” value is on record as 1. Consider “99 (SEAPEAPLL; listed as Homo sapiens) [compound 99]”, for which the “Number of positive CLLs” value is listed as 1. Regarding “100 (SPRASGSGL; listed as Homo sapiens) [compound 100]”, the “Number of positive CLLs” value turned out to be 6.

With “101 (VVGPAAEAK; listed as Homo sapiens) [compound 101]”, the “Number of positive CLLs” value is on record as 2. With “102 (FSITKSVEL; listed as Homo sapiens) [compound 102]”, the “Number of positive CLLs” value worked out at 4. In the case of “103 (GQTKNDLVV; listed as Homo sapiens) [compound 103]”, the “Number of positive CLLs” value is 1. On to “104 (LSQEVCRD; listed as Homo sapiens) [compound 104]”, for which the “Number of positive CLLs” value worked out at 2. As to “105 (RDIQSPEQI; listed as Homo sapiens) [compound 105]”, the “Number of positive CLLs” value came to 1.

Consider “106 (REDNSSNSL; listed as Homo sapiens) [compound 106]”, for which the “Number of positive CLLs” value is on record as 1. Take “107 (TEHQEPGL; listed as Homo sapiens) [compound 107]”: the “Number of positive CLLs” value was found to be 2. On to “108 (TKNDLVVSL; listed as Homo sapiens) [compound 108]”, for which the “Number of positive CLLs” value turned out to be 1. Take “109 (AEEAGGTRL; listed as Homo sapiens) [compound 109]”: the “Number of positive CLLs” value was 1. Then “110 (ENVNKKDY; listed as Homo sapiens) [compound 110]”, with 1. As for “111 (GLDPNKPPEL; listed as Homo sapiens) [compound 111]”, the “Number of positive CLLs” value amounted to 4. Then “112 (RPAGEPYNRKTL; listed as Homo sapiens) [compound 112]”, with 2; and “113 (SASVQRADTSL; listed as Homo sapiens) [compound 113]”, with 5; and “114 (YGNPRTNGM; listed as Homo sapiens) [compound 114]”, with 2. With “115 (LIRPVSASF; listed as Homo sapiens) [compound 115]”, the “Number of positive CLLs” value is 3. For “116 (SPVNSSKQPSY; listed as Homo sapiens) [compound 116]”, the “Number of positive CLLs” value is 3. As for “117 (QLFSYAILGF; listed as Homo sapiens) [compound 117]”, the “Number of positive CLLs” value was 1. Then “118 (DEHLLIQHY; listed as Homo sapiens) [compound 118]”, with 2.

With “119 (KQVASSTGF; listed as Homo sapiens) [compound 119]”, the “Number of positive CLLs” value is recorded as 1. As for “120 (RDFGPASQHFL; listed as Homo sapiens) [compound 120]”, the “Number of positive CLLs” value is listed as 1. Then “121 (RQLGEVASF; listed as Homo sapiens) [compound 121]”, with 2. With “122 (TEAETTANVL; listed as Homo sapiens) [compound 122]”, the “Number of positive CLLs” value is listed as 1.

Regarding “123 (GYLPVQTVL; listed as Homo sapiens) [compound 123]”, the “Number of positive CLLs” value is listed as 1. With “124 (GQKEALLKY; listed as Homo sapiens) [compound 124]”, the “Number of positive CLLs” value turned out to be 1. Then “125 (KPSEERKTI; listed as Homo sapiens) [compound 125]”, with 1.

“126 (KQTPKVLVV; listed as Homo sapiens) [compound 126]”: the “Number of positive CLLs” value came to 1. Regarding “127 (SVIQHVQSF; listed as Homo sapiens) [compound 127]”, the “Number of positive CLLs” value is 1.

As for “128 (TPIERIPYL; listed as Homo sapiens) [compound 128]”, the “Number of positive CLLs” value stood at 3.

Consider “129 (AEVEKNETV; listed as Homo sapiens) [compound 129]”, for which the “Number of positive CLLs” value stood at 1. For the substance “130 (EVKEEIPLV; listed as Homo sapiens) [compound 130]”, the “Number of positive CLLs” value is reported as 1. Then “131 (KPTSARSGL; listed as Homo sapiens) [compound 131]”, with 2. In the case of “132 (KYIETTPLTI; listed as Homo sapiens) [compound 132]” it was 1; in that of “133 (SEIKTSIEV; listed as Homo sapiens) [compound 133]”, 1; in that of “134 (SVKPTSATK; listed as Homo sapiens) [compound 134]”, 4. Turning to “135 (YPNKGVGQA; listed as Homo sapiens) [compound 135]”, the “Number of positive CLLs” value turned out to be 1.

Take “136 (ISMKILNSL; listed as Homo sapiens) [compound 136]”: the “Number of positive CLLs” value is 2. Regarding “137 (KTIAFLLPMF; listed as Homo sapiens) [compound 137]”, the “Number of positive CLLs” value came to 1.

In the case of “138 (RDSIINDF; listed as Homo sapiens) [compound 138]”, the “Number of positive CLLs” value stood at 2. In the case of “139 (SVKGGGGNEK; listed as Homo sapiens) [compound 139]” it was 1. Regarding “140 (GIAKTGSGK; listed as Homo sapiens) [compound 140]”, the “Number of positive CLLs” value stood at 1. Turning to “141 (AETTDNVFTL; listed as Homo sapiens) [compound 141]”, the “Number of positive CLLs” value was 1. In the case of “142 (SEYQRFAVM; listed as Homo sapiens) [compound 142]”, the “Number of positive CLLs” value was determined as 3. For “143 (TFGERVVAF; listed as Homo sapiens) [compound 143]”, the “Number of positive CLLs” value stood at 1. With “144 (NENLVERF; listed as Homo sapiens) [compound 144]”, the “Number of positive CLLs” value was determined as 2. Regarding “145 (KITVPASQK; listed as Homo sapiens) [compound 145]”, the “Number of positive CLLs” value is 1. Turning to “146 (KITVPASQKL; listed as Homo sapiens) [compound 146]”, the “Number of positive CLLs” value is given as 7. In the case of “147 (VPASQKLRQL; listed as Homo sapiens) [compound 147]”, the “Number of positive CLLs” value worked out at 2.

For “148 (HVGYTLSYK; listed as Homo sapiens) [compound 148]”, the “Number of positive CLLs” value was determined as 1. In the case of “149 (KLPLPLPPRL; listed as Homo sapiens) [compound 149]” it was 3; in that of “150 (KPIEPRREL; listed as Homo sapiens) [compound 150]”, 1; in that of “151 (SHSHVGYTL; listed as Homo sapiens) [compound 151]”, 3. In the case of “152 (APSEYRYTL; listed as Homo sapiens) [compound 152]” it was 1; in that of “153 (APSEYRYTLL; listed as Homo sapiens) [compound 153]”, 3.

For “154 (EIFQNEVAR; listed as Homo sapiens) [compound 154]”, the “Number of positive CLLs” value was determined as 1. Then “155 (KDVLIPGKL; listed as Homo sapiens) [compound 155]”, with 1; and “156 (VPLVREITF; listed as Homo sapiens) [compound 156]”, with 2. Take “157 (DPNPNFEKF; listed as Homo sapiens) [compound 157]”: the “Number of positive CLLs” value is given as 1. Turning to “158 (IQAPLSWEL; listed as Homo sapiens) [compound 158]”, the “Number of positive CLLs” value was 1.

As to “159 (VIYNEQMASK; listed as Homo sapiens) [compound 159]”, the “Number of positive CLLs” value amounted to 3. Then “160 (VLRPGGAFY; listed as Homo sapiens) [compound 160]”, with 2; and “161 (EDPDQDILI; listed as Homo sapiens) [compound 161]”, with 1; and “162 (HGNLRELAL; listed as Homo sapiens) [compound 162]”, with 3. As for “163 (KLYPTLVIR; listed as Homo sapiens) [compound 163]”, the “Number of positive CLLs” value was 4. For the substance “164 (SEETFRFEL; listed as Homo sapiens) [compound 164]”, the “Number of positive CLLs” value amounted to 1.

Regarding “165 (ELNKLLEEI; listed as Homo sapiens) [compound 165]”, the “Number of positive CLLs” value is 3. With “166 (IPFSNPRVL; listed as Homo sapiens) [compound 166]”, the “Number of positive CLLs” value was found to be 2.
